Measured values from paper PMC10163288.
Some of the results follow.

B1: il2ra_site1_2b5i_normal_mot_HHH_b2_04910_000000118_0001_1_19_H_._HHH_b1_07122_af2_0001_0000200012_0000001_0_af2pred_dldesign_0_af2pred (protein)
chain: SSSSDLKKALELFLEADKAFQAGKPDEATALLKEALAIAKAAGANSLLRMIENALKQVESLSSSS
B2: il2ra_site1_2b5i_normal_mot_5de9be3e17529c6517391df70e98d31c_0001_000000287_0001_54_65_H_._HHH_b1_03457_0001_0000200009_0000001_0_af2pred_dldesign_0_af2pred (protein)
chain: SSSSSSEARRLLLEAERAFREGDKERLEEIIKRLKELYEKTKSKLTEAALKAAEEALEELSSSSS
B3: il2ra_site1_3nfp_sap_24_mot_HHH_b1_03429_af2_000000091_0001_1_19_H_._HHH_b1_05431_0001_0000100008_0000001_0_0001 (protein)
chain: SSSSDLERLRELIEEAWKLLAEGNPEEAREVLKEAEELAEELGDRIALRLVRQLLEAAERRSSSS
B4: il2ra_site2_2erj_normal_mot_HHH_b1_06608_000000059_0001_22_39_H_._HHH_b2_01768_0001_0000500018_0000001_0 (protein)
chain: SSSSDEEELEELLRQAEELLKEGDPEEASRVLARAAFLALELRDDEVLRALFELAREVFGSSSSS
B5: il2ra_site2_3nfp_sap_20_mot_HHH_b1_03557_000000106_0001_41_55_H_._HHH_b1_00600_0001_0000700042_0000001_0_0001 (protein)
chain: DFEEDTKRMRELAKDPRFQEVYALLSELQQELKIPPREAIEILRKELEERGDEELLEILEELAQL
B6: il2ra_site1_1z92_normal_mot_HHH_b2_06478_af2_000000093_0001_42_55_H_._707acc9d051fe3a4acad5ad22db0e630_0001_1_af2_0001_0000400023_0000001_0_af2pred_dldesign_0_a … (protein)
chain: NPEEYERIKKLAGGDPEKILKVAVRLARTSGDLTPEELAALEAEARAAIAAKSPEVDELLRRLLE
B7: il2ra_site1_2b5i_sap_13_mot_HHH_b1_02315_000000070_0001_40_56_H_._HHH_b2_01358_0001_0000100002_0000001_0_0001_af2pred_dldesign_0_af2pred (protein)
chain: SSSSSAAALADAAEAEARALRDAGRLREALELLAAAHAELGALGDDAAEERMERAYNELLSSSSS
B8: il2ra_site1_3nfp_normal_mot_HHH_b2_02028_000000257_0001_1_17_H_._8e257ee7c168324b0daa1e7d19ed2966_0001_0001_0000600033_0000001_0_af2pred_0001_af2pred (protein)
chain: SLEEALEFLRQLAEELNDEALKFLVRDLERLVRLGNEESARKLVERSLKEAGDPVLEEVLELLRK
B9: il2ra_site2_2erj_normal_mot_4428453eb85d3cbdb794fa6b82d21c19_0001_000000044_0001_14_30_H_._HHH_b1_00353_0001_0000400019_0000001_1 (protein)
chain: SSSSDLEERLEELEELVRELYKEGNMEEVFRVAVEMLALASERQDPEAQQFVLRVIEELASSSSS
B10: il2ra_site2_3nfp_sap_24_mot_HHH_b1_07764_000000013_0001_24_39_H_._HHH_b1_07817_0001_0000500063_0000001_0_0001 (protein)
chain: SSSSSDERHERMVELAIEAARALGDEEVLELLEELLERAREEGDWRLLLEAYAALARARKNSSSS
B11: il2ra_site2_3nfp_sap_22_mot_HHH_b2_00444_000000178_0001_41_57_H_._HHH_b2_08009_af2_0001_0000100003_0000001_0_0001_af2pred_0001_1_af2pred_swapped (protein)
chain: SSSSDEEERRLRELLEEVEELLRQGNPEEAEKVLQEVALLAIEANDEEILLRVLKLLEELESSSS
B12: il2ra_site2_2erj_sap_24_mot_HHH_b2_01204_af2_000000051_0001_19_34_H_._HHH_b2_00125_0001_0000500030_0000001_0_0001 (protein)
chain: SSSSDVEELLEQVEELIEEGNLEEAAKVLNEAAQLVMEKHDPELYRLLAELARALLERRQSSSSS
B13: il2ra_site1_1z92_normal_mot_HHH_b1_03515_000000289_0001_1_19_H_._HHH_b2_04566_af2_0001_0000100001_0000001_0 (protein)
chain: SSSDEEQARRSLERLVEDAVKLAGLSEEQKEKLEELVEELIERGVDFLEAIKLIDELARELSSSS
B14: il2ra_site2_2erj_normal_mot_HHH_b1_00210_af2_000000043_0001_43_57_H_._HHH_b1_00702_0001_0000100006_0000001_0 (protein)
chain: SSSSDREEVEELLKELEEAYEEGDEEKFEELASRASVLIFQIGDFELWSELAELFAKLNKSSSSS
B15: il2ra_site1_3nfp_sap_12_mot_HHH_b1_04676_af2_000000031_0001_1_20_H_._HHH_b1_01857_0001_0000200015_0000001_0_0001 (protein)
chain: AVEFFLRVLFRKGNPEYAEKALEEALKAMGVFSPEEIEELLRLLKEAIEKRDPELLRRVEELARK
B16: il2ra_site2_3nfp_normal_mot_HHH_b2_06150_000000217_0001_39_53_H_._HHH_b1_00394_0001_0000500016_0000001_1 (protein)
chain: SSSSSDRERLEELLEEIEEAIKNGNEEEVRRLLAEVTHLAFRAGDSEVFFLVAELLFEFTSSSSS
B17: il2ra_site2_3nfp_normal_mot_HHH_b1_07543_000000150_0001_38_55_H_._HHH_b1_08180_0001_0000400017_0000001_0 (protein)
chain: SSSSDLVEEAERVVEEALEKLREEGDEEVLKYLEAALILLELTGDPRLAHAVLALAEAVLSSSSS
B18: il2ra_site1_2b5i_normal_mot_f5ff40796168375b462bec8614a1db4a_0001_1_000000138_0001_53_65_H_._HHH_b1_07482_0001_0000100004_0000001_0_af2pred_dldesign_0_af2pred (protein)
chain: SSSSSKSNIDIKEVVDLADEVAEEDPELAKRLLLLALRIAKKSNDEEAIKEIEERLKELESSSSS
B19: il2ra_site1_2b5i_normal_mot_HHH_b1_04959_000000285_0001_43_56_H_._HHH_b1_02339_0001_0000100002_0000001_0_af2pred_dldesign_0_af2pred (protein)
chain: SSSSSPLAKRTLEFLKEAVEQGDKEAFDYYYEYLKRHIEKHGDEEAKKELEKLKKEFEKLLSSSS
B20: il2ra_site1_1z92_sap_13_mot_d5167a162c519d043ddc16d89768c28c_0001_1_af2_000000001_0001_35_49_H_._e38714b7eaf634bf3645433aba93d827_0001_0001_0000100007_0000001_0 … (protein)
chain: SSSSSDEEAVEMILRAARRAREKGNPERAEEFLEFAKRHAEARHDPELEELVRKVERELGSSSSS
B21: il2ra_site1_2b5i_normal_mot_HHH_b1_08745_af2_000000166_0001_39_57_H_._HHH_b2_04087_0001_0000300019_0000001_0_af2pred_dldesign_0_af2pred (protein)
chain: SSSSSVGKKVLELLKKADEALKAGKLEEARKLLEEAERLAKEGKMNGWLKFIEACRKQLESSSSS
B22: il2ra_site2_3nfp_sap_23_mot_HHH_b1_01221_af2_000000126_0001_40_57_H_._HHH_b2_02896_0001_0000200006_0000001_0_0001 (protein)
chain: SSSSSKAEKYLRVVLEIAERALEQGDPEVARRSLEIAEEMARSQGTPLVEEVERLLEELNSSSSS
B23: il2ra_site2_3nfp_normal_mot_HHH_b1_04497_000000281_0001_1_18_H_._HHH_b2_05984_0001_0000600034_0000001_0 (protein)
chain: SSSSSSTWEFSTEALVEHLEEEGNPELAEELKRLLEEIREEGDPELRLELYKLLREIWSSSSSSS
B24: il2ra_site1_1z92_sap_22_mot_HHH_b1_06033_000000254_0001_1_19_H_._HHH_b1_03862_0001_0000300014_0000001_0_0001_af2pred_0001_af2pred (protein)
chain: SSSSSKELVEIIAELAAEFRLSLEALRELTKLALELLERGYSEEEIRRLLEELAEELAEGSSSSS

Biological target: il2ra, P01589
Experiment: yeast display titration

Apparent Kd, inactive:
B1 no binding seen
B2 no binding seen
B3 no binding seen
B4 no binding seen
B5 no binding seen
B6 no binding seen
B7 no binding seen
B8 no binding seen
B9 no binding seen
B10 no binding seen
B11 no binding seen
B12 no binding seen
B13 no binding seen
B14 no binding seen
B15 no binding seen
B16 no binding seen
B17 no binding seen
B18 no binding seen
B19 no binding seen
B20 no binding seen
B21 no binding seen
B22 no binding seen
B23 no binding seen
B24 no binding seen

Pulled one by one from the list above, two records:
Apparent Kd, inactive:
B11 no binding seen
B5 no binding seen
